# Source: patent US9221826B2, “Pyrrolopyridazine JAK3 inhibitors and their use for the treatment of inflammatory and autoimmune diseases” (Bristol-Myers Squibb Company, priority 2011, dated 2015)
# Protein sequences, listed by entry. Tags and fused reporters are not part of them.
# UniProt P52333, whole entry: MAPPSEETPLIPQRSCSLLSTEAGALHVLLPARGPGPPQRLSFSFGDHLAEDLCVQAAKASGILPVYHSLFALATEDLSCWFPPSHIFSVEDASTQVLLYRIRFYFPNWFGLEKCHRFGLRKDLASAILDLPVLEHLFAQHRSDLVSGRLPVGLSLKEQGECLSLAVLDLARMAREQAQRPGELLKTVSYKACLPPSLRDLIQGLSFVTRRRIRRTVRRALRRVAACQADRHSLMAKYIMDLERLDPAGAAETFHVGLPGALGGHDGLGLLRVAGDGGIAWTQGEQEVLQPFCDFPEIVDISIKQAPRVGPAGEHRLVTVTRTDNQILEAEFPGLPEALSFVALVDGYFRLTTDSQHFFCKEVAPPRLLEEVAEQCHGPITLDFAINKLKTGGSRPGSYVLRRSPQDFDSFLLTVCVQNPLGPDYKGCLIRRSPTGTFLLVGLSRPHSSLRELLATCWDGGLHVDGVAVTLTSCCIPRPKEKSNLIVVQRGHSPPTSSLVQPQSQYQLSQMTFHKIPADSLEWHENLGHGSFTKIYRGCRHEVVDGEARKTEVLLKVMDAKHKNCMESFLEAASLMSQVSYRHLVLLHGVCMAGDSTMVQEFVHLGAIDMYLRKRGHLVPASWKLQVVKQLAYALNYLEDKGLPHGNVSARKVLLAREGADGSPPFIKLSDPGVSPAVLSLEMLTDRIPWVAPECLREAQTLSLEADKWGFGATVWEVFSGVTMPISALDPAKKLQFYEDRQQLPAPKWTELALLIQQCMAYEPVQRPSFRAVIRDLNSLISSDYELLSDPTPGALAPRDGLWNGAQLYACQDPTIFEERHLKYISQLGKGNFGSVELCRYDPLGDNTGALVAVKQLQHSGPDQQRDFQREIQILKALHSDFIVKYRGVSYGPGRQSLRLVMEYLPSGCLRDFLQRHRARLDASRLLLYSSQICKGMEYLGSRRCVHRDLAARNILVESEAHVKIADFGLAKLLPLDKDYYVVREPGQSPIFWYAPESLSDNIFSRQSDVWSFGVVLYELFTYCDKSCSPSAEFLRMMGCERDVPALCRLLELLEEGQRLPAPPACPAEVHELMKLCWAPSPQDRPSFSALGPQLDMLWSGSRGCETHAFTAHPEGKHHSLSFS
# UniProt P23458, whole entry: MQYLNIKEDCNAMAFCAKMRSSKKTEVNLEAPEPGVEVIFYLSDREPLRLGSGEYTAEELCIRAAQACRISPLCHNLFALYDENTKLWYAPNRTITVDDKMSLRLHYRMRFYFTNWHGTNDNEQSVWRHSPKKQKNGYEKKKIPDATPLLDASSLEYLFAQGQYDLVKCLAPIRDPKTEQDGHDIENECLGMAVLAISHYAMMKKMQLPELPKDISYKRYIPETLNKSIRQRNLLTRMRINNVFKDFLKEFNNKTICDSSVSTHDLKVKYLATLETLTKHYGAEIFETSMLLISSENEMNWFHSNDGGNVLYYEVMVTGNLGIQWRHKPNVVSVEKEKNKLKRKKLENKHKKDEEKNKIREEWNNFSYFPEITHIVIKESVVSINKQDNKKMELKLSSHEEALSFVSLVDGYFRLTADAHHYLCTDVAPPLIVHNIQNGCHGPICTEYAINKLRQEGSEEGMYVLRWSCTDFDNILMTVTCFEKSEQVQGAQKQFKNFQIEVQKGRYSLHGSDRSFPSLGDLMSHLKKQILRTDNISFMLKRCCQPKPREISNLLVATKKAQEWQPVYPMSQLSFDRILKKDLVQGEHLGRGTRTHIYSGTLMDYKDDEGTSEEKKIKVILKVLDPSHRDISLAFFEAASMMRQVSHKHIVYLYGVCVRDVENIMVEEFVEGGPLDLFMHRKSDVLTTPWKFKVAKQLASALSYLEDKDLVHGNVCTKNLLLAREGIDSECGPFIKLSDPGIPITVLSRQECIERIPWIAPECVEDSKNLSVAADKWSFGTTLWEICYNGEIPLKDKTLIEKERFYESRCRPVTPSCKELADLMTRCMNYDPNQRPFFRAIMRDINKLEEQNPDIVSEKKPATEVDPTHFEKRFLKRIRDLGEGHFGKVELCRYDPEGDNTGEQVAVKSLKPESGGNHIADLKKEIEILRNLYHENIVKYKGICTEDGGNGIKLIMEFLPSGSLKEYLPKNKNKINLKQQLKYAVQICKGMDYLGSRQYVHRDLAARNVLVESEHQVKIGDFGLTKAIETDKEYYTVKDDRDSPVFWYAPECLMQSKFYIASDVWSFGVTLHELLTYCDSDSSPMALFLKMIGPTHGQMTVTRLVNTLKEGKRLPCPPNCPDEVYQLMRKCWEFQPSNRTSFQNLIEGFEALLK
# Structures were worked out from names or drawings and are uncertain.
# How the values were obtained:
# JAK3 enzyme = JAK3 enzyme (Homo sapiens, UniProt P52333); experiment: JAK3 Kinase Assay Protocol (Filter); conditions: read-out: LLE_JAK3_FB (IC50), 33P γ-ATP, 8 μM ATP, CSKtide substrate
# GST-JAK3 enzyme = GST-JAK3 enzyme (Homo sapiens, UniProt P52333); experiment: JAK3 Kinase Assay Protocol (Caliper); conditions: read-out: LLE_JAK3_CAL (IC50); Caliper LabChip assay, ATP 8 μM, fluoresceinated peptide
# GST-JAK1 enzyme = GST-JAK1 enzyme (Homo sapiens, UniProt P23458); experiment: JAK1 Kinase Assay Protocol; conditions: read-out: LLE_JAK1 (IC50); Caliper LabChip assay, ATP 100 μM, fluoresceinated peptide
# Procedure: The assay reactions were performed in U-bottom 384-well plates. The final assay volume was 30 μl prepared from 15 μl additions of enzyme and substrates (fluoresceinated peptide and ATP) and test compounds in assay buffer (20 mM HEPES pH 7.4, 10 mM MgCl2, 25 mM beta-glycerol phosphate, 0.015% Brij35 and 4 mM DTT). The reaction was initiated by the combination of GST-JAK1 enzyme with substrates and test compounds. The reactions were incubated at room temperature for 3 hours and terminated by adding 60 μl of 35 mM EDTA to each sample. Each reaction mixture was analyzed on the Caliper LabChip 3000 (Caliper, Hopkinton, Mass.) by electrophoretic separation of the fluorescent substrate and phosphorylated product. Inhibition data were calculated by comparison with no enzyme control reactions for 100% inhibition, and vehicle-only treated reactions for 0% inhibition. The final concentration of reagents in the assays was: ATP, 100 μM; fluoresceinated peptide, 1.5 μM; GST-JAK1, 12.5 nM; and DMSO, 1.6%. Dose response curves were generated to determine the concentration required inhibiting 50% of kinase activity (IC50). Compounds were dissolved at 10 mM in dimethylsulfoxide (DMSO) and evaluated at eleven concentrations. IC50 values were derived by non-linear regression analysis.
smiles,measurement,setting,value
CC1(C)[C@H](Nc2c(C(N)=O)cnn3cc(-c4ccc(N5CCOCC5=O)cc4)cc23)CC[C@]1(C)N,IC50,JAK3 enzyme,1.2 nM
same,IC50,GST-JAK3 enzyme,1.1 nM
same,IC50,GST-JAK1 enzyme,0.7 nM
